{"sequences": {"note": "Amino acid sequences for entries named in this document (tags omitted).", "UniProt P08047": "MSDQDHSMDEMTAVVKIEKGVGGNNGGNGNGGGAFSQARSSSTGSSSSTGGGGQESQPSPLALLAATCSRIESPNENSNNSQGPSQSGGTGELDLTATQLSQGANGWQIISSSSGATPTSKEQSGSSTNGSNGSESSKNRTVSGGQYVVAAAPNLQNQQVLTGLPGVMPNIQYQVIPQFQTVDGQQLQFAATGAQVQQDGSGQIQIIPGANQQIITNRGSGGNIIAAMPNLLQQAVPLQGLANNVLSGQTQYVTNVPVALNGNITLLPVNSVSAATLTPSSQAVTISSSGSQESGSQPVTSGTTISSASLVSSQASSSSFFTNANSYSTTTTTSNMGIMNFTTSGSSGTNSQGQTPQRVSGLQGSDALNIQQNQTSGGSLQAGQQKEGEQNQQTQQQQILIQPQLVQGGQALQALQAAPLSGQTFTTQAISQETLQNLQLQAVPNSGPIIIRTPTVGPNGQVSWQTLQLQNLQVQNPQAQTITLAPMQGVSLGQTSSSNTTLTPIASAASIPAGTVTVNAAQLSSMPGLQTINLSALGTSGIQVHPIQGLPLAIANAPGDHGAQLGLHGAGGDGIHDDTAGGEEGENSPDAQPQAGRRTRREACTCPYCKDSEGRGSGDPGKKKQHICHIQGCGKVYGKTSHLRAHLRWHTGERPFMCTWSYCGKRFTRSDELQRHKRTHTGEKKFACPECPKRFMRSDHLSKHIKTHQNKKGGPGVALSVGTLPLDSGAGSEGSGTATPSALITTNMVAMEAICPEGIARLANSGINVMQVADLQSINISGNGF"}, "source": "paper PMC10878691", "target": "T1, HNF4α (human (endogenous in HPAEpiCs)) (UniProt P41235)", "T1 sequence": "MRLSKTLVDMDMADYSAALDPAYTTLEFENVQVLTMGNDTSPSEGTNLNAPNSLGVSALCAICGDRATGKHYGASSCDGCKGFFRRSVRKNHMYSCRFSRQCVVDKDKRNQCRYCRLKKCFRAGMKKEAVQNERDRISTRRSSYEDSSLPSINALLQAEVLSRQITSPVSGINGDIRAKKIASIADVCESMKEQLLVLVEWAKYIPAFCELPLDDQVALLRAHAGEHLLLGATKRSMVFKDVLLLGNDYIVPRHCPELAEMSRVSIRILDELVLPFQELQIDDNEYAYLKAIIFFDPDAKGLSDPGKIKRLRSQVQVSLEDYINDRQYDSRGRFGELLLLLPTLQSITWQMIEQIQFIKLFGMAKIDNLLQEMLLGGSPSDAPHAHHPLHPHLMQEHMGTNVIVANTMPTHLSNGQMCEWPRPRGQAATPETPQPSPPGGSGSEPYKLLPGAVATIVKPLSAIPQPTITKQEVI", "assay": "co-IP; HPAEpiCs lysed on ice in cell lysis buffer; supernatant incubated with anti-HNF4α antibodies overnight, then Protein A Agarose for 4 hr at 4 °C, washed three times, immunoblotting after elution", "note": "These are yes or no findings as the source states them, for the method shown. In cells and extracts the contact can be indirect. Some binding calls cover weakened binding; strength is not graded here."}
{"substance": "SP1 (from UniProt P08047 1-785)", "values": [{"measurement": "binding", "result": "binds"}]}
